No constants are given. Whether binding was seen depends on the method and setting. In cells and extracts the contact can be indirect. Some entries that bind do so weakly or less than the wild type.

Amino acid sequences for entries named in this document (tags omitted).
UniProt Q04206: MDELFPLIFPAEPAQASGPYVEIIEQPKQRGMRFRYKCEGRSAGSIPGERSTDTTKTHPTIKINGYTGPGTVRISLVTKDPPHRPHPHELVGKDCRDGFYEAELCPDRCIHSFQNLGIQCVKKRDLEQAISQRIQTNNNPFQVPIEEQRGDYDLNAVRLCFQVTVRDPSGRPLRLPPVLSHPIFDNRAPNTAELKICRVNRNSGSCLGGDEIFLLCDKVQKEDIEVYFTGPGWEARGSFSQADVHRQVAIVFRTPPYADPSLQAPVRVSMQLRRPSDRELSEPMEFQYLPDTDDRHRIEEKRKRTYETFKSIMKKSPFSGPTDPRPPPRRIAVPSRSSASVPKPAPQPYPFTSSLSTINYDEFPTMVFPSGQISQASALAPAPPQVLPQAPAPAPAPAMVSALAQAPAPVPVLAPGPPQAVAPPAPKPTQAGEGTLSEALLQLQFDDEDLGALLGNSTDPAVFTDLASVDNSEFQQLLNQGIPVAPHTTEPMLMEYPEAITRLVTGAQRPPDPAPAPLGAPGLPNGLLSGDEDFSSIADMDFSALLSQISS

Our source for the binding values is PMC3521698.

Assay [1] deals with FLAG-tagged RelA (human), Q04206. The experiment in a line: co-IP. As to conditions: remark: other sources report otherwise.
Another assay concerns the target FLAG-tagged RelA (human) (UniProt Q04206). The experiment in a line: co-IP.

B1: IκBα (endogenous), P25963 1-317 (protein)
chain: MFQAAERPQEWAMEGPRDGLKKERLLDDRHDSGLDSMKDEEYEQMVKELQEIRLEPQEVPRGSEPWKQQLTEDGDSFLHLAIIHEEKALTMEVIRQVKGDLAFLNFQNNLQQTPLHLAVITNQPEIAEALLGAGCDPELRDFRGNTPLHLACEQGCLASVGVLTQSCTTPHLHSILKATNYNGHTCLHLASIHGYLGIVELLVSLGADVNAQEPCNGRTALHLAVDLQNPDLVSLLLKCGADVNRVTYQGYSPYQLTWGRPSTRIQQQLGQLTLENLQMLPESEDEESYDTESEFTEFTEDELPYDDCVFGGQRLTL
With B1, the binding entry in assay [1] was “binds”.

B2: p52 (protein, UniProt Q00653 1-454)
chain: MESCYNPGLDGIIEYDDFKLNSSIVEPKEPAPETADGPYLVIVEQPKQRGFRFRYGCEGPSHGGLPGASSEKGRKTYPTVKICNYEGPAKIEVDLVTHSDPPRAHAHSLVGKQCSELGICAVSVGPKDMTAQFNNLGVLHVTKKNMMGTMIQKLQRQRLRSRPQGLTEAEQRELEQEAKELKKVMDLSIVRLRFSAFLRASDGSFSLPLKPVISQPIHDSKSPGASNLKISRMDKTAGSVRGGDEVYLLCDKVQKDDIEVRFYEDDENGWQAFGDFSPTDVHKQYAIVFRTPPYHKMKIERPVTVFLQLKRKRGGDVSDSKQFTYYPLVEDKEEVQRKRRKALPTFSQPFGGGSHMGGGSGGAAGGYGGAGGGGSLGFFPSSLAYSPYQSGAGPMGCYPGGGGGAQMAATVPSRDSGEEAAEPSAPSRTPQCEPQAPEMLQRAREYNARLFGLA
For B2, the binding entry in the assay with FLAG-tagged RelA (human) is “binds”.

B3: p100, Q00653-1 1-900 (protein)
chain: MESCYNPGLDGIIEYDDFKLNSSIVEPKEPAPETADGPYLVIVEQPKQRGFRFRYGCEGPSHGGLPGASSEKGRKTYPTVKICNYEGPAKIEVDLVTHSDPPRAHAHSLVGKQCSELGICAVSVGPKDMTAQFNNLGVLHVTKKNMMGTMIQKLQRQRLRSRPQGLTEAEQRELEQEAKELKKVMDLSIVRLRFSAFLRASDGSFSLPLKPVISQPIHDSKSPGASNLKISRMDKTAGSVRGGDEVYLLCDKVQKDDIEVRFYEDDENGWQAFGDFSPTDVHKQYAIVFRTPPYHKMKIERPVTVFLQLKRKRGGDVSDSKQFTYYPLVEDKEEVQRKRRKALPTFSQPFGGGSHMGGGSGGAAGGYGGAGGGGSLGFFPSSLAYSPYQSGAGPMGCYPGGGGGAQMAATVPSRDSGEEAAEPSAPSRTPQCEPQAPEMLQRAREYNARLFGLAQRSARALLDYGVTADARALLAGQRHLLTAQDENGDTPLHLAIIHGQTSVIEQIVYVIHHAQDLGVVNLTNHLHQTPLHLAVITGQTSVVSFLLRVGADPALLDRHGDSAMHLALRAGAGAPELLRALLQSGAPAVPQLLHMPDFEGLYPVHLAVRARSPECLDLLVDSGAEVEATERQGGRTALHLATEMEELGLVTHLVTKLRANVNARTFAGNTPLHLAAGLGYPTLTRLLLKAGADIHAENEEPLCPLPSPPTSDSDSDSEGPEKDTRSSFRGHTPLDLTCSTKVKTLLLNAAQNTMEPPLTPPSPAGPGLSLGDTALQNLEQLLDGPEAQGSWAELAERLGLRSLVDTYRQTTSPSGSLLRSYELAGGDLAGLLEALSDMGLEEGVRLLRGPETRDKLPSTAEVKEDSAYGSQSVEQEAEKLGPPPEPPGGLCHGHPQPQVH
Turning to B3, the binding entry in assay [1] is “binds”.

B4: RelB, Q01201 1-579 (protein)
chain: MLRSGPASGPSVPTGRAMPSRRVARPPAAPELGALGSPDLSSLSLAVSRSTDELEIIDEYIKENGFGLDGGQPGPGEGLPRLVSRGAASLSTVTLGPVAPPATPPPWGCPLGRLVSPAPGPGPQPHLVITEQPKQRGMRFRYECEGRSAGSILGESSTEASKTLPAIELRDCGGLREVEVTACLVWKDWPHRVHPHSLVGKDCTDGICRVRLRPHVSPRHSFNNLGIQCVRKKEIEAAIERKIQLGIDPYNAGSLKNHQEVDMNVVRICFQASYRDQQGQMRRMDPVLSEPVYDKKSTNTSELRICRINKESGPCTGGEELYLLCDKVQKEDISVVFSRASWEGRADFSQADVHRQIAIVFKTPPYEDLEIVEPVTVNVFLQRLTDGVCSEPLPFTYLPRDHDSYGVDKKRKRGMPDVLGELNSSDPHGIESKRRKKKPAILDHFLPNHGSGPFLPPSALLPDPDFFSGTVSLPGLEPPGGPDLLDDGFAYDPTAPTLFTMLDLLPPAPPHASAVVCSGGAGAVVGETPGPEPLTLDSYQAPGPGDGGTASLVGSNMFPNHYREAAFGGGLLSPGPEAT
In the case of B4, the binding result in assay [1] is “binds”.

B5: c-Rel (protein, UniProt Q04864 1-619)
chain: MASGAYNPYIEIIEQPRQRGMRFRYKCEGRSAGSIPGEHSTDNNRTYPSIQIMNYYGKGKVRITLVTKNDPYKPHPHDLVGKDCRDGYYEAEFGQERRPLFFQNLGIRCVKKKEVKEAIITRIKAGINPFNVPEKQLNDIEDCDLNVVRLCFQVFLPDEHGNLTTALPPVVSNPIYDNRAPNTAELRICRVNKNCGSVRGGDEIFLLCDKVQKDDIEVRFVLNDWEAKGIFSQADVHRQVAIVFKTPPYCKAITEPVTVKMQLRRPSDQEVSESMDFRYLPDEKDTYGNKAKKQKTTLLFQKLCQDHVETGFRHVDQDGLELLTSGDPPTLASQSAGITVNFPERPRPGLLGSIGEGRYFKKEPNLFSHDAVVREMPTGVSSQAESYYPSPGPISSGLSHHASMAPLPSSSWSSVAHPTPRSGNTNPLSSFSTRTLPSNSQGIPPFLRIPVGNDLNASNACIYNNADDIVGMEASSMPSADLYGISDPNMLSNCSVNMMTTSSDSMGETDNPRLLSMNLENPSCNSVLDPRDLRQLHQMSSSSMSAGANSNTTVFVSQSDAFEGSDFSCADNSMINESGPSNSTNPNSHGFVQDSQYSGIGSMQNEQLSDSFPYEFFQV
On to B5, for which the binding entry with FLAG-tagged RelA (human) was “binds”.
